In PubChem BioAssay AID248 (DTP/NCI, 2004):
The list shows only some results of the screen, not a fair sample: it gathers tests that were run many times, whatever their T/C, doses with no T/C, and many T/C values between a quarter and a half above the control. Further doses and runs are listed elsewhere. T/C: endpoint of the treated group in % of that of the vehicle group. Some entries give survivors of the animals treated and no T/C: the source files T/C as zero there, which appears to mark a toxic dose or a test without result, not a measured value. Some doses without a T/C left all or most animals alive at the check, yet need not have been tolerated: the source hardly ever lists a survival T/C far under the control, and the zero likely stands for such cases as well. Counts of survivors are from the toxicity check (mostly the fifth day) where no day follows; animals may have died later. Schedule codes are those of the source, taken here to give the interval after Q, in days (D) or hours (H), and the number of doses after X. For survival time, the PubChem record calls one and a half times the control and up active, and a quarter to a half above the control has no call in these data; cut-offs in other NCI protocols can differ. Some T/C values carry the count of animals alive at the toxicity check (mostly the fifth day); without a count, all were alive then.

Test system: L1210 leukemia ip in BDF1 mice, survival T/C
Assay: NCI In Vivo Anticancer Drug Screen. Data for tumor model L1210 Leukemia (intraperitoneal) in B6D2F1 (BDF1) mice
Conditions: T/C endpoint: mean survival time, higher T/C = longer survival
[1] = dose: 100.0 mg/kg/injection, schedule: Q04DX002 (ip), vehicle: saline with Tween-80
[2] = dose: 200.0 mg/kg/injection, schedule: Q04DX002 (ip), vehicle: saline with Tween-80
[3] = dose: 400.0 mg/kg/injection, schedule: Q04DX002 (ip), vehicle: saline with Tween-80
[4] = dose: 200.0 mg/kg/injection, schedule: Q01DX009 (ip), vehicle: Klucel (hydroxypropylcellulose) (HPC)
[5] = dose: 400.0 mg/kg/injection, schedule: Q01DX009 (ip), vehicle: Klucel (hydroxypropylcellulose) (HPC)
[6] = dose: 100.0 mg/kg/injection, schedule: Q01DX001 (ip), vehicle: carboxymethylcellulose (CMC)
[7] = dose: 200.0 mg/kg/injection, schedule: Q01DX001 (ip), vehicle: carboxymethylcellulose (CMC)
[8] = dose: 400.0 mg/kg/injection, schedule: Q01DX001 (ip), vehicle: carboxymethylcellulose (CMC)

Cc1cc2c(cc1C)[n+]([O-])c1c(=O)[nH]c(=O)[nH]c1[n+]2[O-]
survivor count [1]: 1 of 3
survivor count [2]: 0 of 3
survivor count [3]: 1 of 3

CCCNC(=O)Sc1ccc(C(C)(C)C)cc1
survivor count [4]: 3 of 3
survivor count [5]: 0 of 3

C(#Cc1ccccc1)COCC1CO1 (stereo not drawn)
survivor count (dose: 400.0 mg/kg/injection, schedule: Q04DX003 (ip), vehicle: saline with Tween-80): 0 of 6

COc1ccc(CCNC(=O)Cc2ccccc2[N+](=O)[O-])cc1OC
survivor count [6]: 0 of 4
survivor count [7]: 0 of 4
survivor count [8]: 0 of 4

N#CSCCN1C(=O)C2C3CCC(O3)C2C1=O (stereo not drawn)
survivor count (dose: 25.0 mg/kg/injection, schedule: Q04DX002 (ip), vehicle: saline with Tween-80): 1 of 3
survivor count [1]: 0 of 3
survivor count [2]: 0 of 3
survivor count [3]: 0 of 3

C=Cc1c2[n-]c(c1C)/C=c1\[n-]/c(c(C)c1C=C)=C\c1[n-]c(c(CCC(=O)O)c1C)/C=c1\[n-]/c(c(C)c1CCC(=O)O)=C\2.[Co]
survivor count (dose: 400.0 mg/kg/injection, schedule: Q01DX009 (ip), vehicle: dextrose): 3 of 6

CS(=O)(=O)OCOS(C)(=O)=O
T/C (dose: 25.0 mg/kg/injection, schedule: Q01DX009 (ip), vehicle: saline): 128 % of control [5 of 6 alive]
survivor count (dose: 100.0 mg/kg/injection, schedule: Q01DX009 (ip), vehicle: Klucel (hydroxypropylcellulose) (HPC)): 4 of 6
survivor count (dose: 100.0 mg/kg/injection, schedule: Q01DX009 (ip), vehicle: saline): 6 of 6
survivor count (dose: 100.0 mg/kg/injection, schedule: Q04DX002 (ip), vehicle: saline): 3 of 3
survivor count [4]: 3 of 6
survivor count (dose: 200.0 mg/kg/injection, schedule: Q04DX002 (ip), vehicle: saline): 1 of 3

CNC(=O)Oc1ccccc1C(N)=O
survivor count [4]: 2 of 6
survivor count [5]: 0 of 6

Ic1ncnc2c1ncn2C1CCCCO1 (stereo not drawn)
survivor count (dose: 400.0 mg/kg/injection, schedule: Q01DX009 (ip), vehicle: saline sonified): 3 of 6

CC(C)(C)C1CCC(N=C(N)CS)CC1 (stereo not drawn)
survivor count (dose: 12.5 mg/kg/injection, schedule: Q01DX001 (ip), vehicle: carboxymethylcellulose (CMC)): 1 of 6
survivor count (dose: 25.0 mg/kg/injection, schedule: Q01DX001 (ip), vehicle: carboxymethylcellulose (CMC)): 0 of 6
survivor count (dose: 50.0 mg/kg/injection, schedule: Q01DX001 (ip), vehicle: carboxymethylcellulose (CMC)): 0 of 6
survivor count [6]: 0 of 6
survivor count [7]: 0 of 6
survivor count [8]: 0 of 6

[Br][Hg][c]1ccccc1
survivor count (dose: 150.0 mg/kg/injection, schedule: Q01DX001 (ip), vehicle: carboxymethylcellulose (CMC)): 0 of 6
survivor count (dose: 300.0 mg/kg/injection, schedule: Q01DX001 (ip), vehicle: carboxymethylcellulose (CMC)): 0 of 6

COc1ccc2nccc(C=O)c2c1
survivor count (dose: 50.0 mg/kg/injection, schedule: Q01DX009 (ip), vehicle: saline with Tween-80): 2 of 6
T/C (dose: 100.0 mg/kg/injection, schedule: Q04DX003 (ip), vehicle: saline with Tween-80): 148 % of control
